Experimental data taken from patent US7476680B2, “Substituted heterocyclic compounds for treating multidrug resistance” (H. Lee Moffitt Cancer Center & Research Institute, Inc., priority 2000, dated 2009).
The name of at least one read-out is uncertain.

Tested on: NIH-MDR1-G185 cells
Assay: Fluorescent substrate accumulation assay (BODIPY-FL Taxol)
Type: cell-based
Conditions: BODIPY-FL Taxol 500 nM, modulator 10 micromolar, 40 min at 37° C.; fluorescence with modulator / without modulator
Protocol: Fluorescent Substrate Accumulation Assay
NIH-MDR1-G185 cells (obtained from M. Gottesman, NIH) were harvested and resuspended in RPMI-1640 containing L-glutamine, 10% Cosmic Calf Serum and penicillin-streptomycin. Cell suspension aliquots of 175 microliters (1×10^5 cells) were added to individual wells of a 96 well microtiter plate and preincubated for 15 min at 37° C. with 20 microliters MDR modulator diluted in cell culture media to give a final concentration of 10 micromolar. Control wells received no modulating agent. BODIPY-FL Taxol (Molecular Probes, Eugene, Oreg.) was added to each well in 10 microliter aliquots to give a final concentration of 500 nM and cells were incubated for 40 min at 37° C. Cells were centrifuged at 100×g for 5 min at 4° C. and the cell pellet washed with 200 microliters cold PBS to remove fluorescent medium from wells. Cells were centrifuged once more, media removed, and cells resuspended in 200 microliters cold PBS. Fluorescence accumulation was measured in a fluorescence plate reader fitted with an excitation filter of 485 nm and an emission filter of 538 nm. BODIPY-FL taxol accumulation in the cells was calculated as follows: Accumulation Index=(fluorescence in NIH-MDR1-G185 cells in the presence of modulator)/(fluorescence in NIH-MDR1-G185 cells in absence of modulator)

| SMILES | Accumulation Index |
| --- | --- |
| Cc1ccccc1N1CCN(C(=O)C2CCN(C[C@@H](O)COc3cccc4ncccc34)CC2)CC1 [Example 33, (R)-1-[2-hydroxy-3-(quinolin-5-yloxy)-propyl]-piperidine-4-carboxylic acid 4-[1-(o-tolyl)-piperazine] amide] | 8 |
| Cc1ccccc1N1CCN(C(=O)C2CCCN(C[C@@H](O)COc3cccc4ncccc34)C2)CC1 (stereo partly drawn) [Example 40, (R)-1-[2-hydroxy-3-(quinolin-5-yloxy)-propyl]-piperidine-3-carboxylic acid 4-[1-(o-tolyl)-piperazine] amide] | 12 |
